{"source": "PubChem BioAssay AID1224826 (NIAID, 2016)", "aim": "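Genes that change LPS-induced Tnf promoter activity in mouse macrophages when knocked down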 (primary screen)", "system": "RAW264.7 G9 macrophages from mouse bearing reporters for p65 (GFP) and the Tnf promoter (mCherry)", "reagent": "siRNA pool against mouse genes, 100 nM", "time to read-out": "16 h of LPS stimulation, after 2 days of siRNA transfection", "treatment": "bacterial lipopolysaccharide (Salmonella minnesota R595), 10 ng/ml", "detection": "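Imaged Tnf reporter mCherry in nuclei, minus background, normalised per plate to the median and expressed as robust z-scores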", "scale": "Tnf reporter robust z-score: higher = stronger Tnf promoter reporter signal after LPS", "hit rule": "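Called active when robust z-score is at most -1.3, matching the median of the Tlr4 knock-down control, or over 3; control wells and wells with under 50 cells never active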", "calls": "active = Tnf reporter clearly lowered or raised; inactive = no clear change in Tnf reporter", "note": "The deposit covers about 17,000 reagents; this is an unselected part. In the full data, about 1,110 (6.6%) got an active call. 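Active means lowered or raised reporter signal; replicate intensities are raw and not normalised per plate.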 Not all columns of the deposit are shown."}
{"gene symbol": "Dclk3", "Tnf reporter robust z-score": -0.46, "fewer than 50 cells in well": "enough cells in well", "Call": "inactive"}
{"gene symbol": "Asah1", "Tnf reporter robust z-score": -0.49, "fewer than 50 cells in well": "enough cells in well", "Call": "inactive"}
{"gene symbol": "Sox2ot", "Tnf reporter robust z-score": -1.43, "fewer than 50 cells in well": "enough cells in well", "Call": "active"}
{"gene symbol": "Pdpn", "Tnf reporter robust z-score": -0.89, "fewer than 50 cells in well": "enough cells in well", "Call": "inactive"}
{"gene symbol": "Arhgef10l", "Tnf reporter robust z-score": 0.39, "fewer than 50 cells in well": "enough cells in well", "Call": "inactive"}
{"gene symbol": "Mos", "fewer than 50 cells in well": "fewer than 50 cells per well; well left out of calls", "Call": "inactive"}
{"gene symbol": "Creb3l3", "Tnf reporter robust z-score": -1.58, "fewer than 50 cells in well": "enough cells in well", "Call": "active"}
{"gene symbol": "Psph", "Tnf reporter robust z-score": -0.12, "fewer than 50 cells in well": "enough cells in well", "Call": "inactive"}
{"gene symbol": "Shroom1", "Tnf reporter robust z-score": -0.82, "fewer than 50 cells in well": "enough cells in well", "Call": "inactive"}
{"gene symbol": "Or5p62", "Tnf reporter robust z-score": -0.63, "fewer than 50 cells in well": "enough cells in well", "Call": "inactive"}
{"gene symbol": "Lman1l", "Tnf reporter robust z-score": 1.87, "fewer than 50 cells in well": "enough cells in well", "Call": "inactive"}
{"gene symbol": "Or2a20", "Tnf reporter robust z-score": -0.15, "fewer than 50 cells in well": "enough cells in well", "Call": "inactive"}
{"gene symbol": "Or52n3", "Tnf reporter robust z-score": 0.1, "fewer than 50 cells in well": "enough cells in well", "Call": "inactive"}
{"gene symbol": "Mpz", "Tnf reporter robust z-score": -0.05, "fewer than 50 cells in well": "enough cells in well", "Call": "inactive"}
{"gene symbol": "1700055D18Rik", "Tnf reporter robust z-score": 0.78, "fewer than 50 cells in well": "enough cells in well", "Call": "inactive"}
{"gene symbol": "Slc16a1", "Tnf reporter robust z-score": 0.61, "fewer than 50 cells in well": "enough cells in well", "Call": "inactive"}
{"gene symbol": "Prdm8", "Tnf reporter robust z-score": -1.46, "fewer than 50 cells in well": "enough cells in well", "Call": "active"}
{"gene symbol": "Pth1r", "Tnf reporter robust z-score": 0.56, "fewer than 50 cells in well": "enough cells in well", "Call": "inactive"}
{"gene symbol": "B4galnt2", "Tnf reporter robust z-score": -0.36, "fewer than 50 cells in well": "enough cells in well", "Call": "inactive"}
{"gene symbol": "Ces1g", "Tnf reporter robust z-score": 0.37, "fewer than 50 cells in well": "enough cells in well", "Call": "inactive"}
{"gene symbol": "Hadha", "Tnf reporter robust z-score": 0.64, "fewer than 50 cells in well": "enough cells in well", "Call": "inactive"}

3 entries from above, reduced to “fewer than 50 cells in well”:
Or52n3 = enough cells in well
Mpz = enough cells in well
1700055D18Rik = enough cells in well
